Assay results taken from publication PMC6411009.
Where two headings read alike, the source gives them in different places. Results are given in words; binding and its absence hold for the method and conditions named. In cells and extracts the contact can be indirect. A yes stands for co-enrichment or nearness to the bait. Other partners may have been found. For some of these results: A no says only that the protein was not detected with the bait. Each block holds one molecule with its values, some of them ahead of it.

Chains of the proteins cited; added tags and fusions are not shown.
UniProt P13010: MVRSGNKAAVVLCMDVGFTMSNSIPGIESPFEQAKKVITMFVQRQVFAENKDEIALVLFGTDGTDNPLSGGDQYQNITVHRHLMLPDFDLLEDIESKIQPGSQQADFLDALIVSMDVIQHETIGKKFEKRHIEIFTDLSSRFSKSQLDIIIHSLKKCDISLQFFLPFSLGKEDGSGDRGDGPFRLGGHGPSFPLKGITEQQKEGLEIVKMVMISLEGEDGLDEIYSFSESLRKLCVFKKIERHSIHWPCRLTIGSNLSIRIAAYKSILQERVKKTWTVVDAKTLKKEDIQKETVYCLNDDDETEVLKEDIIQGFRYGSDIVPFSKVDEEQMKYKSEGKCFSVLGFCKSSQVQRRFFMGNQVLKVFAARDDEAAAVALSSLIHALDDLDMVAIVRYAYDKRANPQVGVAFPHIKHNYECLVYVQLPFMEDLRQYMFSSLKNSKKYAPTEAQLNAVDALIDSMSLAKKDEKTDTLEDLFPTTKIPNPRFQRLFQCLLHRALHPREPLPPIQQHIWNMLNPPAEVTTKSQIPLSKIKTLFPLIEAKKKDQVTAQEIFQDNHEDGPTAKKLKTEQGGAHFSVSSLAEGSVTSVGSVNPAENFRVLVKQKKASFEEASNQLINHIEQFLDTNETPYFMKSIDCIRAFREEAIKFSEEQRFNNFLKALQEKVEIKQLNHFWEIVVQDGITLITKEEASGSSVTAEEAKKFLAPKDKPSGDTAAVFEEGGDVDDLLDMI
UniProt P78527: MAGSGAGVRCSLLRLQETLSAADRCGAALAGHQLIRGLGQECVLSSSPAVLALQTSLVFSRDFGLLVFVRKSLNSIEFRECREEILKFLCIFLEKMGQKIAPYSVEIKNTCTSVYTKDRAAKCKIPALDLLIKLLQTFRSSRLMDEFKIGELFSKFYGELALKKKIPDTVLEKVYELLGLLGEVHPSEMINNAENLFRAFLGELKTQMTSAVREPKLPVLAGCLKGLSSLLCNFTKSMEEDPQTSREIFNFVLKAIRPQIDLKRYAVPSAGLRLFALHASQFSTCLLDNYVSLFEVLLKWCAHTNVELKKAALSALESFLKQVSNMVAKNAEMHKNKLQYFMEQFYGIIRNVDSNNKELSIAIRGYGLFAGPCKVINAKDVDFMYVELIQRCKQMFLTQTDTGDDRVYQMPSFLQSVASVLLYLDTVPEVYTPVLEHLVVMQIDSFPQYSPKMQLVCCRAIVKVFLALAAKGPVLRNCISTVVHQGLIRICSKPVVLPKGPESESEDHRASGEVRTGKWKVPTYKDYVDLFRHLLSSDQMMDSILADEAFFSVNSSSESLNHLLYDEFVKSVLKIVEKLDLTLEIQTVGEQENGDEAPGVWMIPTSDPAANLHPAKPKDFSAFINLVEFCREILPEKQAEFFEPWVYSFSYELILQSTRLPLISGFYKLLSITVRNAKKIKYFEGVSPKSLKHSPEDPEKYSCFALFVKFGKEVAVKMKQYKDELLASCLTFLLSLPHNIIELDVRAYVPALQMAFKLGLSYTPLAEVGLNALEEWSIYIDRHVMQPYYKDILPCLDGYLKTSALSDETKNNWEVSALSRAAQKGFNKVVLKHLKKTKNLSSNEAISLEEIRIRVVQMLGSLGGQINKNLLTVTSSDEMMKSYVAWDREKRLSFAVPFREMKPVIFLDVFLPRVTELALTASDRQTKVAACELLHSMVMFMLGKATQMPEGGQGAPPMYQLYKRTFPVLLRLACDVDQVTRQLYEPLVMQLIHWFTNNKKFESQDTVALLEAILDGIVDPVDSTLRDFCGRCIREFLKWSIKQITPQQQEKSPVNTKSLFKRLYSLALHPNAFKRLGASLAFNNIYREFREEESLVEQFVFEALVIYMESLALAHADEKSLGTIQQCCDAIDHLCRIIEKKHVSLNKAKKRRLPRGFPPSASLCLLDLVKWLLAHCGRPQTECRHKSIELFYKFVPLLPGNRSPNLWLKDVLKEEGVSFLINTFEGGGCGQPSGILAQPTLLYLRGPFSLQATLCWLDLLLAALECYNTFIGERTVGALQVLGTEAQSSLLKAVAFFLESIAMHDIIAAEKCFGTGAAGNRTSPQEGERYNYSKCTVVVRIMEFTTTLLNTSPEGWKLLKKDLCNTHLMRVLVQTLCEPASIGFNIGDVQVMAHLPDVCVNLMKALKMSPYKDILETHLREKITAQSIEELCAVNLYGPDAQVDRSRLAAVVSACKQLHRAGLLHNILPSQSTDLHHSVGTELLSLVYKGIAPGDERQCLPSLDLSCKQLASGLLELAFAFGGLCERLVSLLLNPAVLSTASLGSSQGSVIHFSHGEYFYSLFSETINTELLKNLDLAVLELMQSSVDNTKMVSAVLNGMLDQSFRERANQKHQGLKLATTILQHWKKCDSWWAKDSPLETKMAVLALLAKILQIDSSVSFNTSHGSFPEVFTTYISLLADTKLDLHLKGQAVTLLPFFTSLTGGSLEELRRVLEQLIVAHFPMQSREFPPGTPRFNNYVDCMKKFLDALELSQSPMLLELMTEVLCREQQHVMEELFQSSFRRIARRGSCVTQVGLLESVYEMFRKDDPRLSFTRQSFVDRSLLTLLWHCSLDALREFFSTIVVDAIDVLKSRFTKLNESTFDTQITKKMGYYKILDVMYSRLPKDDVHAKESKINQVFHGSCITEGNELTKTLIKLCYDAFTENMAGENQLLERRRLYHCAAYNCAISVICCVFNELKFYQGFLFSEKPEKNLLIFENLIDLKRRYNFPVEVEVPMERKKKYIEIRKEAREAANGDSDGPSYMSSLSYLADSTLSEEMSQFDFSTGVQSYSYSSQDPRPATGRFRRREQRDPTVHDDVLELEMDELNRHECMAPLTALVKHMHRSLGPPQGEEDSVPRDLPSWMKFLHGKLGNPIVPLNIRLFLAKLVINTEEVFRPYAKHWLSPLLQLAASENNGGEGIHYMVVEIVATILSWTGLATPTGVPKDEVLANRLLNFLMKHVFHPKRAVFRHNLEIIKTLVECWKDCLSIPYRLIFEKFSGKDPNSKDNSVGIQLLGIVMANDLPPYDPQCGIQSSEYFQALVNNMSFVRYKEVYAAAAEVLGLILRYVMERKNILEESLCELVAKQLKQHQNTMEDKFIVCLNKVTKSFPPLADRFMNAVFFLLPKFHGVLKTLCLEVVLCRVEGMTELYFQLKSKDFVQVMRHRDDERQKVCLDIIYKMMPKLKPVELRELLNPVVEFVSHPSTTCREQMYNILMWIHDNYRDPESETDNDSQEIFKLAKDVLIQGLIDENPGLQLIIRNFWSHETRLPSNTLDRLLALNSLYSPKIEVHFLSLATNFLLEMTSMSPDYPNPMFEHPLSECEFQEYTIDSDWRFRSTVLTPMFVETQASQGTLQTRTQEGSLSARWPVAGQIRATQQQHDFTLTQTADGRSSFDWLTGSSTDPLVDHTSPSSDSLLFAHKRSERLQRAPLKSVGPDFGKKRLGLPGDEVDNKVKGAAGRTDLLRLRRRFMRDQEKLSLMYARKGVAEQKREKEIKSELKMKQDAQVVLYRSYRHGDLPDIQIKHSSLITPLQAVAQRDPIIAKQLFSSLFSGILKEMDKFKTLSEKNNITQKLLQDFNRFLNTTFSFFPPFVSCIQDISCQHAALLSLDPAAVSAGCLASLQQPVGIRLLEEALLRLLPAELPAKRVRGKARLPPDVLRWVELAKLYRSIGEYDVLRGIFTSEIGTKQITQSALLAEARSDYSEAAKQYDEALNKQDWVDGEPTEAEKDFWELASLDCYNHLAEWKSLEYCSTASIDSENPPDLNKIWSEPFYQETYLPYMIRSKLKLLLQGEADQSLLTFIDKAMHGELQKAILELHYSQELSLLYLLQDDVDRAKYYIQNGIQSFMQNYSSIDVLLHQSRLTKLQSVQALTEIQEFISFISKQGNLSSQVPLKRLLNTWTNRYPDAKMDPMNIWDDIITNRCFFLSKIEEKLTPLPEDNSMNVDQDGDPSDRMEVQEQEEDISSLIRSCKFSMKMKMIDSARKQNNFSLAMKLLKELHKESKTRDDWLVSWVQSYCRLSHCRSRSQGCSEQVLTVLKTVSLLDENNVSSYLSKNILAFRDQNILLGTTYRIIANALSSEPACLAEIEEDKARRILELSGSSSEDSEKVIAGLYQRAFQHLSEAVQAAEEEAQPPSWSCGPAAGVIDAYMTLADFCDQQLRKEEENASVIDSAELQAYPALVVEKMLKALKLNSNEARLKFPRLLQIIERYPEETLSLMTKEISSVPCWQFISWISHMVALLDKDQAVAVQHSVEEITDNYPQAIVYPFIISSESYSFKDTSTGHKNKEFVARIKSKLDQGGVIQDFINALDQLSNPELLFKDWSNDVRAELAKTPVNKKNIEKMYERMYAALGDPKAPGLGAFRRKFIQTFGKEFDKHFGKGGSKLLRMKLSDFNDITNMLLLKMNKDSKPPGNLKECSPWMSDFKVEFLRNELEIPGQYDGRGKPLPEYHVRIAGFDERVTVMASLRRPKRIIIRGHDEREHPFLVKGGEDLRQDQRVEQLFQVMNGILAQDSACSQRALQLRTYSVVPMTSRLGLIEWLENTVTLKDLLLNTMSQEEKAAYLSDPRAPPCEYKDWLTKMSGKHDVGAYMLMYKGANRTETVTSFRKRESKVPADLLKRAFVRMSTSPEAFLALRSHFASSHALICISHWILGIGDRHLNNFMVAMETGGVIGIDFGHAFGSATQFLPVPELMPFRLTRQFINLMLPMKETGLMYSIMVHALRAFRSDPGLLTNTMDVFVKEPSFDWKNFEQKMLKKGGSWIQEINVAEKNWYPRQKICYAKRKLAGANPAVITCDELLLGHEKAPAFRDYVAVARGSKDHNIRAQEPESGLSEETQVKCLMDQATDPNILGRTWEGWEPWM
UniProt P09874: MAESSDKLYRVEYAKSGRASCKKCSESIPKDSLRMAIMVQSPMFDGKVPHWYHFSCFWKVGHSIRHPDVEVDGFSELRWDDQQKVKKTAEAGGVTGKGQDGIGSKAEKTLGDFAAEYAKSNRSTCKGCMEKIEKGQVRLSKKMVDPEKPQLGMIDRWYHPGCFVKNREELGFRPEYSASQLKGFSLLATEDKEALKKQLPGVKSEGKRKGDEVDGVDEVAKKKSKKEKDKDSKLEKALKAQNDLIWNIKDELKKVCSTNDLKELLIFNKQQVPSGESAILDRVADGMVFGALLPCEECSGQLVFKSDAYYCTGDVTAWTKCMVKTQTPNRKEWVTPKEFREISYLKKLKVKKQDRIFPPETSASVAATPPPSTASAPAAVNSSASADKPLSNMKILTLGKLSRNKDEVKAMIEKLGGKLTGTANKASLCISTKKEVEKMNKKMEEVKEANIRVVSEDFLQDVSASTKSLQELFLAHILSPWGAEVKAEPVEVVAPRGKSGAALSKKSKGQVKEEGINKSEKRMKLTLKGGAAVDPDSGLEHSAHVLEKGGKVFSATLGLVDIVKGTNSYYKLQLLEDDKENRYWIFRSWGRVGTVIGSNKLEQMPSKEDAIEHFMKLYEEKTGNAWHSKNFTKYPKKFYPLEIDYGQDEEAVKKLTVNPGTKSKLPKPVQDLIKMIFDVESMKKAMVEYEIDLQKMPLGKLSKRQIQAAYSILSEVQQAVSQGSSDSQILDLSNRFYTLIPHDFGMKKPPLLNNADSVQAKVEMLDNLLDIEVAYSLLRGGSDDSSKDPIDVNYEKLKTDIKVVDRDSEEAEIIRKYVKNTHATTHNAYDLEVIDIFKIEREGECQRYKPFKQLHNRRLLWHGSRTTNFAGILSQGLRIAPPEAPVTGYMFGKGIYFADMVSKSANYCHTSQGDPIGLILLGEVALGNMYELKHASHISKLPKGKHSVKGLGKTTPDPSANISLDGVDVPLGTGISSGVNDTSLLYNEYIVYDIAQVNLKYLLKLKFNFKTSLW

Experiments:
[1] = biological target: Flag epitope-tagged BRN2 wild type (UniProt P31360); assay: affinity purification with mass spectrometry; Flag AP-MS from stable 501mel cells expressing BRN2-Flag wild type or truncation mutants (uninduced, or 10 ng of doxycycline); low-salt lysis buffer (50 mM HEPES-NaOH pH 8.0, 100 mM KCl, 2 mM EDTA, 0.1% NP40, 10% glycerol), sonication, benzonase, anti-Flag M2 magnetic beads 2 h at 4°C; SAINTexpress against untagged parental 501mel controls, FDR ≤1%
[2] = biological target: Flag epitope-tagged BRN2 wild type (UniProt P31360); assay: as above; remark: listed apart in the source

Molecule: Ku80 (XRCC5), endogenous (from UniProt P13010 1-732)
binding [1]: binds

Molecule: importin 5 (IPO5) (from UniProt O00410 1-1097)
binding [1]: binds

B1: CREM (protein, UniProt Q03060 1-345)
chain: MTMETVESQHDGSITASLTESKSAHVQTQTGQNSIPALAQVSVAGSGTRRGSPAVTLVQLPSGQTIHVQGVIQTPQPWVIQSSEIHTVQVAAIAETDESAESEGVIDSHKRREILSRRPSYRKILNELSSDVPGVPKIEEERSEEEGTPPSIATMAVPTSIYQTSTGQYIAIAQGGTIQISNPGSDGVQGLQALTMTNSGAPPPGATIVQYAAQSADGTQQFFVPGSQVVVQDEETELAPSHMAAATGDMPTYQIRAPTAALPQGVVMAASPGSLHSPQQLAEEATRKRELRLMKNREAAKECRRRKKEYVKCLESRVAVLEVQNKKLIEELETLKDICSPKTDY
binding [2]: binds

The remaining lines, values ahead:

binding [1]: binds
Molecule: DNA-dependent protein kinase (DNAPK and PRKDC) (from UniProt P78527 1-4128) (enzyme)

binding [1]: binds
Molecule: Ku70 (XRCC6), endogenous (from UniProt P12956 1-609)

binding [1]: binds
Molecule: PARP1, endogenous (from UniProt P09874 1-1014) (enzyme)

binding [1]: no binding
Molecule: p300 (from UniProt Q09472 1-2414)
